Measurements reported in PubChem BioAssay AID1259295 (Sanger Institute, 2017)

Purpose: 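Kinase knockdowns that sensitise colorectal cancer cells to BYL719, cetuximab or trametinib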 (secondary deconvolution screen, four single siRNAs per gene)
System: human COLO678 colorectal cancer cells
Reagents: single siRNA against human genes
Conditions: anchor drug BYL719 at 1 µM, cetuximab at 5 µg/ml or trametinib at 10 nM, or DMSO vehicle alone
Measured: 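Averaged cell survival relative to control pool 2 with DMSO, plus synergy scores weighing knockdown combined with each of three drugs against either separately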
Scale: synergy score with BYL719: higher = stronger combined killing with BYL719; synergy score with cetuximab: higher = stronger combined killing with cetuximab; synergy score with trametinib: higher = stronger combined killing with trametinib
Hit rule: 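a single siRNA is called active when its synergy score is above 0.10 for at least one of the three drugs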
The whole screen tested 160 reagents; below is an unselected part. In the full data, 40 (25%) got an active call. 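How the synergy score is calculated is not defined; single-siRNA calls need support from other siRNAs and cell lines.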 Reagents against one gene are numbered here. Further read-outs or replicates are left out here. The record does not give: the amount of reagent, the time to read-out.

no.	target gene	reagent no.	synergy score with BYL719	synergy score with cetuximab	synergy score with trametinib	Call
1	PRAG1	1	0.188	0.032	0.303	active
2	PRAG1	2	0.314	0.13	0.261	active
3	PRAG1	3	0.129	-0.0855	-0.0416	active
4	PRAG1	4	-0.00919	-0.0768	0.0946	inactive
5	GUCY2D	1	-0.124	-0.114	0.0112	inactive
6	GUCY2D	2	-0.0841	-0.0594	0.0516	inactive
7	GUCY2D	3	-0.0752	-0.0678	-0.0733	inactive
8	GUCY2D	4	-0.0877	-0.119	-0.0113	inactive
9	IKBKB	1	-0.0222	0.0595	-0.0589	inactive
10	IKBKB	2	-0.0222	0.00326	0.129	active
11	IKBKB	3	-0.0179	0.0833	0.114	active
12	IKBKB	4	-0.0877	-0.119	0.073	inactive
13	NLK	1	0.00831	0.0239	0.101	active
14	NLK	2	-0.0356	0.12	0.153	active
15	NLK	3	-0.1	0.0335	0.0734	inactive
16	NLK	4	-0.0982	0.0104	0.123	active
17	ACVR1	1	-0.0903	-0.0793	0.0407	inactive
18	ACVR1	2	-0.209	-0.0847	0.0353	inactive
19	ACVR1	3	-0.118	-0.0735	0.0451	inactive
20	ACVR1	4	-0.242	-0.0141	-0.0518	inactive
21	RPS6KA4	1	0.0802	0.0333	0.103	active
22	RPS6KA4	2	0.0318	-0.0391	0.0571	inactive
23	RPS6KA4	3	0.0309	-0.0259	0.0666	inactive
24	RPS6KA4	4	-0.0871	-0.00109	-0.0352	inactive
25	CRIM1	1	0.00378	0.0379	0.155	active
26	CRIM1	2	-0.0403	-0.0754	0.0131	inactive
27	CRIM1	3	0.0687	-0.066	0.107	active
28	CRIM1	4	0.19	0.053	0.138	active
29	SF3B1	1	-0.0292	-0.0201	-0.102	inactive
30	SF3B1	2	0.0044	-0.0721	-0.128	inactive
31	SF3B1	3	0.153	0.0681	0.112	active
32	SF3B1	4	0.0989	0.0635	-0.0263	inactive
33	KCNH8	1	0.00831	-0.00338	0.0505	inactive
34	KCNH8	2	-0.0578	0.078	0.0359	inactive
35	KCNH8	3	-0.0922	0.00525	-0.103	inactive
36	KCNH8	4	-0.102	0.0168	0.0764	inactive
37	MAPK4	1	0.0189	-0.119	0.086	inactive
38	MAPK4	2	-0.0222	-0.119	0.118	active
39	MAPK4	3	0.0856	0.00726	0.0948	inactive
40	MAPK4	4	0.0411	-0.0223	0.0405	inactive

5 entries already listed, arranged by “synergy score with cetuximab”, low to high.
target gene	reagent no.	synergy score with BYL719	synergy score with cetuximab	synergy score with trametinib	Call
GUCY2D	1	-0.124	-0.114	0.0112	inactive
PRAG1	3	0.129	-0.0855	-0.0416	active
PRAG1	4	-0.00919	-0.0768	0.0946	inactive
GUCY2D	2	-0.0841	-0.0594	0.0516	inactive
PRAG1	2	0.314	0.13	0.261	active
